Experimental data from PMC9260856.
These are yes or no findings as the source states them, for the method shown. In cells and extracts the contact can be indirect. Binding calls can cover weak binding; strength is not graded here.

Sequences of proteins named here, by UniProt entry; tags and fusion partners are left off. A change or cut given only in a name is not applied to a line headed by its entry.
UniProt Q6PIJ6: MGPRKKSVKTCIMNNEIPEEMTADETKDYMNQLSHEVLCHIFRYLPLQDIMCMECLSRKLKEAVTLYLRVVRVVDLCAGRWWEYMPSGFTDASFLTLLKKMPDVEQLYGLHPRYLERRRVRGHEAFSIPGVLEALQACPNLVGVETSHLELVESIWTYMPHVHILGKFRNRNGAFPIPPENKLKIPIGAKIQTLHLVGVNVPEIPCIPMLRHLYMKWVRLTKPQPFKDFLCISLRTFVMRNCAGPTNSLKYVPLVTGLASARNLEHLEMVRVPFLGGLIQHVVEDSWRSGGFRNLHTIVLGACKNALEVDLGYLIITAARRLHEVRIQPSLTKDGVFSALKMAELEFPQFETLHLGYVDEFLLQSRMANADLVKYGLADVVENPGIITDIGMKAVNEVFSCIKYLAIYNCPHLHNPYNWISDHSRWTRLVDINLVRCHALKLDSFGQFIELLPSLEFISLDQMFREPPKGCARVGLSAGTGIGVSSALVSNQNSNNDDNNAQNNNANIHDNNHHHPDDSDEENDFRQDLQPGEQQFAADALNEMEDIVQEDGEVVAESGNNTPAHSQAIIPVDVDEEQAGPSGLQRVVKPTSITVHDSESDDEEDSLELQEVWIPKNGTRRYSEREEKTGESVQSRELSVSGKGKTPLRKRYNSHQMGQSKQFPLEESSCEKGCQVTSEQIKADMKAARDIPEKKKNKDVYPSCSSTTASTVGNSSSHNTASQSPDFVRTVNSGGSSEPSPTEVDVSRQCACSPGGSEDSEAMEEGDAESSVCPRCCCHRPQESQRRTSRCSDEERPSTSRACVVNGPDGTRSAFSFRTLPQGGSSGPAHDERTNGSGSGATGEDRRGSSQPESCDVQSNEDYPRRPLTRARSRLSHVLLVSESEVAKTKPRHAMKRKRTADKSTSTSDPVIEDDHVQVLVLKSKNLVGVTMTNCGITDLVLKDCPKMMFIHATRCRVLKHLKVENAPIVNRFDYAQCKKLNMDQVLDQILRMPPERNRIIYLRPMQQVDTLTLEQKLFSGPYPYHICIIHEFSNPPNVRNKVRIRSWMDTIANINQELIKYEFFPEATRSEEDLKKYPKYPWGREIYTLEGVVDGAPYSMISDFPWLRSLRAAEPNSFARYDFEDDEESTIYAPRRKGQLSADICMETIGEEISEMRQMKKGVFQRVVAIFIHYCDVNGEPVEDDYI
UniProt Q93009: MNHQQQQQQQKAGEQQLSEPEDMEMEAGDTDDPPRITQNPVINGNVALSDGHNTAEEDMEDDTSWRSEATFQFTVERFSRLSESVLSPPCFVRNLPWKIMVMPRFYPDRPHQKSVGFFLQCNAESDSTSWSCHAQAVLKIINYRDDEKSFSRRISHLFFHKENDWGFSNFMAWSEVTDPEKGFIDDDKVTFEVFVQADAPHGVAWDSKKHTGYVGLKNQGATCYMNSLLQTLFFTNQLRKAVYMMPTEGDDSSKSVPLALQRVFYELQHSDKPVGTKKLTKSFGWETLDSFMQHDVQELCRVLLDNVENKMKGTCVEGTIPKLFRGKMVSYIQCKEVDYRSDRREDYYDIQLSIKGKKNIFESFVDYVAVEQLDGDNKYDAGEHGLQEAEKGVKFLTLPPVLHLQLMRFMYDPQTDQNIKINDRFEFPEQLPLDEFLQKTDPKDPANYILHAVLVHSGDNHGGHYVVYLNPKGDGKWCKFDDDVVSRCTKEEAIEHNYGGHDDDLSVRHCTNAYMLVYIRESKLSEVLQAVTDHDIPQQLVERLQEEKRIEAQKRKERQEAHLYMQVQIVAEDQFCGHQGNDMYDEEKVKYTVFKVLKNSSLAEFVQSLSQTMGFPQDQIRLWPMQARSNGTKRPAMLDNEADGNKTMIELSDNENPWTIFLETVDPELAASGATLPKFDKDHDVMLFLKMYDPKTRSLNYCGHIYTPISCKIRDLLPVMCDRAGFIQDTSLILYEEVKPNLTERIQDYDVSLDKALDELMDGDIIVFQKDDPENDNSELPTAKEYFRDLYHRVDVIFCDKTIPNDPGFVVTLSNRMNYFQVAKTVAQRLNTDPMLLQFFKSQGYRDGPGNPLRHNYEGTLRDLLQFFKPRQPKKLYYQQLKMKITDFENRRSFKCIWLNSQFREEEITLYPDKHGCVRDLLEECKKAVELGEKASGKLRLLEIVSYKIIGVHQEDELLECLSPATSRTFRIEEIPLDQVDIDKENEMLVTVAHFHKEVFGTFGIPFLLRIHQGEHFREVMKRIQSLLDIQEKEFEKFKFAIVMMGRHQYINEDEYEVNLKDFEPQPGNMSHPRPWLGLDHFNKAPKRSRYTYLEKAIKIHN

Target: StrepII-FLAG-tagged FBXO38 lacking the F-box motif (FBXO38^ΔFBOX) (human) (UniProt Q6PIJ6)
Test: co-IP; SF-tagged bait affinity-purified on Strep-Tactin Sepharose from whole-cell lysates of transfected HEK293T cells (150 mM NaCl, 50 mM Tris pH 7.5, 0.4% Triton X-100, Benzonase), desthiobiotin elution, immunoblot; MLN4924 before collecting where indicated

How did the binding turn out when “USP7 deubiquitinase, endogenous in HEK293T cells (from UniProt Q93009 1-1102) (enzyme)” was run?
The binding was “binds”.
